Results reported in PubChem BioAssay AID504444 (National Center for Advancing Translational Sciences (NCATS), 2011).
The whole screen tested about 360,000 compounds, of which about 7,500 (2.1%) were called active. Inconclusive means that the source gave no clear call. Such entries were picked first, then a sample of the others. Calls follow the shape of the dose curve; as a rule, active = well fitted inhibition curve with a large enough effect; inconclusive = small, poorly fitted or top-dose-only effect, or effect the other way; inactive = flat fitted curve, though single readings scatter. Where the call is inconclusive, the potency comes from a doubtful curve fit.

Assay: Nrf2 qHTS screen for inhibitors; also: nearly all actives have a fitted effect of over 60% in size
Conditions: A549 ARE-Fluc reporter, luciferase luminescence, 18-24 h; series mostly up to 46 µM
Procedure, shortened: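 A549 ARE_Fluc cells (5000/well, 5% FBS OPTI-MEM) pre-incubated 2 h, then treated with compounds 18-24 h at 37C/5% CO2 in concentration-response. CellTiter-Fluor viability read first; BugLite luciferase luminescence after 15 min at room temperature gives Nrf2 activity.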
Potency is read from the fitted curve at half-maximal effect.

With `CCCOc1cccc(-c2nc3ccccc3c(=O)o2)c1` as the compound, how does the Potency read?
The Potency was inconclusive: 1.84 µM [activator, full curve].

With `COc1cccc(CNC(=O)CCCn2c(=O)c3cccn3c3cccnc32)c1OC` as the compound, how does the Potency read?
The Potency was inconclusive: 29.1 µM [activator, single point].

With `Cc1cc(SCC(=O)N/N=C/c2ccc(O)cc2O)c(C)cc1Br` as the compound, how does the Potency read?
Its Potency is active: 14.6 µM.

For `COc1cc(/C=N/NC(=S)NC2CC3C=CC2C3)cc(OC)c1OC` (centres undefined), which Potency is on record?
The Potency was inconclusive: 25.9 µM [falling, single point].

With `C[C@H](CO)N1C[C@H](C)[C@@H](CN(C)C(=O)Nc2ccc(C(F)(F)F)cc2)Oc2c(NC(=O)Nc3ccccc3)cccc2C1=O` as the compound, how does the Potency read?
Its Potency is inconclusive: 14.6 µM [falling, single point].

Which Potency does the source give for `Cc1ccc2oc(Nc3nc(C)cc(C)n3)nc2c1` here?
Its Potency is inconclusive: 20.6 µM [activator, partial curve, poor fit].

For `CC(=O)c1ccc(-c2ccc(C(=O)N(C)Cc3nc4ccccc4c(=O)[nH]3)o2)cc1`, which Potency is on record?
Its Potency is inconclusive: 29.1 µM [falling, single point].

Which Potency does the source give for `S=C(N/N=C1\CCc2ccccc21)NC1CCCCC1` here?
Its Potency is inconclusive: 11.6 µM [activator, partial curve].

For `CC(NCCCOc1cccc2ccccc12)c1ccccc1` (centres undefined), which Potency is on record?
Its Potency is “inactive”.

Which Potency does the source give for `CCOC(=O)N1CCN(C(=O)CCCCCn2c(=S)[nH]c3cc4c(cc3c2=O)OCO4)CC1` here?
Its Potency is inconclusive: 0.206 µM [falling, full curve, poor fit].

Which Potency does the source give for `COc1ccc(NC(=O)CSC2=C(C#N)C(c3ccco3)C(C(=O)Nc3nc4ccccc4s3)=C(C)N2)cc1` (centres undefined) here?
Its Potency is inconclusive: 29.1 µM [falling, single point].

With `O=C(CC1Sc2ccccc2NC1=O)NCc1cccc(Cl)c1` (centres undefined) as the compound, how does the Potency read?
The Potency was inconclusive: 0.0046 µM [falling, full curve, poor fit].

Which Potency does the source give for `Cn1cc(S(=O)(=O)c2ccc(Cl)cc2)c(=O)c2cc(F)c(N3CCOCC3)cc21` here?
The Potency was “inactive”.

Which Potency does the source give for `Cc1ccc(S(=O)(=O)NCC(=O)N(CC(=O)NCC2CCCO2)CC2CCCO2)cc1` (centres undefined) here?
Its Potency is “inactive”.

Which Potency does the source give for `COCCCNC(=O)c1c(N)n(-c2ccc(S(N)(=O)=O)cc2)c2nc3ccccc3nc12` here?
Its Potency is “inactive”.

For `Oc1ccc(N=Nc2ccccc2C(F)(F)F)c2cccnc12`, which Potency is on record?
The Potency was inconclusive: 29.1 µM [falling, partial curve, poor fit].

Which Potency does the source give for `C=CCOc1ccccc1/C=N/NC(=O)Cc1ccccc1` here?
Its Potency is inconclusive: 0.013 µM [falling, full curve].

Which Potency does the source give for `CC(=O)Nc1ccc(NC(=O)c2cc(-c3cc(C)cc(C)c3O)n[nH]2)cc1` here?
The Potency was “inactive”.

With `COC(=O)c1cn(-c2nc(C)c3c(n2)CCC3)nn1` as the compound, how does the Potency read?
The Potency was inconclusive: 29.1 µM [activator, single point].

Which Potency does the source give for `CSc1cccc(NC(=O)C(c2ccccc2)N2Cc3ccccc3C2=O)c1` (centres undefined) here?
Its Potency is inconclusive: 32.6 µM [falling, single point].

For `Cc1ccc(NC(=O)CSc2nc3ccc(NC(=O)c4ccco4)cc3s2)c(C)c1`, which Potency is on record?
The Potency was inconclusive: 29.1 µM [falling, single point].

Which Potency does the source give for `COc1cc2c(cc1OC)-c1cc(NC3CC3)nc(=O)n1CC2` here?
The Potency was inconclusive: 32.6 µM [falling, single point].

With `COc1ccc(/C(N)=N/OC(=O)Cc2ccccc2OC)cc1` as the compound, how does the Potency read?
Its Potency is inconclusive: 29.1 µM [activator, single point].

For `CCOc1cc(/C=N/NC(=O)CSc2nnc(C)s2)ccc1OCc1ccccc1Cl`, which Potency is on record?
Its Potency is inconclusive: 5.8 µM [activator, partial curve, poor fit].

Which Potency does the source give for `COc1ccccc1N(CC(=O)NC1CCCC1)C(=O)CCCC(=O)Nc1ccccn1` here?
Its Potency is inconclusive: 9.2 µM [falling, partial curve].

Which Potency does the source give for `COCc1[nH]nc2c1C(C1C=CCCC1)C(C#N)=C(N)O2` (centres undefined) here?
Its Potency is inconclusive: 6.51 µM [falling, single point].

Which Potency does the source give for `CC(CNC(=O)CCCn1ncn2c(cc3occc32)c1=O)c1ccccc1` (centres undefined) here?
The Potency was inconclusive: 3.26 µM [falling, full curve, poor fit].

With `COc1cc(NC(=O)c2ccc3c(c2)OCO3)ccc1NC(=O)c1cccs1` as the compound, how does the Potency read?
Its Potency is inconclusive: 14.6 µM [falling, partial curve].

With `COc1ccc(-c2cc(C(F)(F)F)nc(NCCc3ccccc3)n2)cc1` as the compound, how does the Potency read?
The Potency was inconclusive: 6.51 µM [activator, single point].

With `COc1ccccc1Nc1nc(-c2sc(NC(=O)C(C)(C)C)nc2C)cs1` as the compound, how does the Potency read?
The Potency was active: 7.31 µM.

For `COC(=O)Nc1ccc(OCc2ccccc2)cc1`, which Potency is on record?
The Potency was inconclusive: 5.8 µM [activator, partial curve, poor fit].

Which Potency does the source give for `COC(=O)c1c(SCC(=O)Nc2cc(F)ccc2F)[nH]c2ccc(C)cc2c1=O` here?
The Potency was inconclusive: 11.6 µM [falling, partial curve, poor fit].

With `Cc1ccc(/C=C2\SC(=S)N(CCCC(=O)Nc3cccnc3)C2=O)cc1` as the compound, how does the Potency read?
The Potency was active: 11.6 µM.

Which Potency does the source give for `CCc1cc(C(=O)N/N=C/c2ccc(O)cc2)c2ccccc2n1` here?
Its Potency is inconclusive: 29.1 µM [activator, single point].

Which Potency does the source give for `NNC(=O)c1oc2nc(-c3ccco3)cc(-c3ccco3)c2c1N` here?
Its Potency is inconclusive: 25.9 µM [falling, single point].

Which Potency does the source give for `COc1ccc(CC(=O)Nc2ccc(-c3cn4cccc(C)c4n3)cc2)cc1OC` here?
Its Potency is active: 7.31 µM.

Which Potency does the source give for `CN(C)c1cccc(F)c1C(=O)NC(=O)Nc1ccc(Cl)cc1` here?
Its Potency is “inactive”.

Which Potency does the source give for `O=C(NCCc1ccccc1)c1cc2sccc2n1Cc1ccc(F)cc1` here?
The Potency was inconclusive: 13 µM [falling, single point].

With `O=C(Nc1ccc2c(c1)OCO2)C1CCN(S(=O)(=O)c2ccc3c(c2)OCCO3)CC1` as the compound, how does the Potency read?
The Potency was inconclusive: 20.6 µM [falling, single point].

With `O=C(CSc1ccc(Cl)cc1)N/N=C/c1ccc([N+](=O)[O-])o1` as the compound, how does the Potency read?
The Potency was active: 23.1 µM.

For `CCn1c(NCc2ccc(N(C)C)cc2)nc2ccccc21`, which Potency is on record?
The Potency was “inactive”.

For `CC(C(=O)NCc1ccc2c(c1)OCO2)N1c2cccc3cccc(c23)S1(=O)=O` (centres undefined), which Potency is on record?
The Potency was inconclusive: 20.6 µM [falling, single point].

With `S=C(NCC1(c2ccccc2)CCCC1)Nc1ccccc1` as the compound, how does the Potency read?
Its Potency is active: 16.4 µM.

Which Potency does the source give for `O=C(Nc1ccccc1)c1nc[nH]c1C(=O)NCc1ccccc1` here?
The Potency was inconclusive: 25.9 µM [falling, single point].

With `Cc1ccc(CS(=O)(=O)c2cn(CC(=O)N3CCOCC3)c3ccccc23)cc1` as the compound, how does the Potency read?
Its Potency is inconclusive: 23.1 µM [activator, partial curve, poor fit].

For `COc1ccc(CCN2C(=O)CSC2=S)cc1OC`, which Potency is on record?
Its Potency is “inactive”.

With `CCOC(=O)c1[nH]c2cc3c(cc2c1NC(=O)CN1CCC(C)CC1)OCO3` as the compound, how does the Potency read?
The Potency was inconclusive: 31.6 µM [falling, partial curve, poor fit].

With `O=C(O)/C=C/C(=O)NCc1ccccc1` as the compound, how does the Potency read?
Its Potency is inconclusive: 29.1 µM [falling, partial curve, poor fit].

For `CN(C)c1ccc(C(=O)OCc2ccccc2)cc1`, which Potency is on record?
The Potency was inconclusive: 16.4 µM [activator, partial curve, poor fit].

With `COc1ccc(-c2cc3ccccc3nc2N)cc1OC` as the compound, how does the Potency read?
The Potency was active: 16.4 µM.

For `CCN1C(=O)c2cccc3c(S(=O)(=O)N4CCC(C)CC4)ccc1c23`, which Potency is on record?
Its Potency is inconclusive: 20.6 µM [falling, single point].

With `O=C(N/N=C1\C2CN3CCN(C2)CC1(c1ccccc1)C3)c1ccc(F)cc1` as the compound, how does the Potency read?
Its Potency is “inactive”.

For `CCCCOc1ccc(C(=O)Nc2onc3c2CCCC3)cc1`, which Potency is on record?
Its Potency is inconclusive: 0.146 µM [activator, full curve, poor fit].

With `COc1ccc(S(=O)(=O)N2CCOCC2)cc1NC(=O)CN(C)Cc1c(F)cccc1Cl` as the compound, how does the Potency read?
Its Potency is active: 20.6 µM.

Which Potency does the source give for `Cc1cc(C(=O)COc2cccc(-n3cnnn3)c2)c(C)n1-c1ccccc1` here?
The Potency was inconclusive: 29.1 µM [falling, single point].

With `Cc1ccc(S(=O)(=O)c2nc(Nc3nccs3)sc2Cl)cc1` as the compound, how does the Potency read?
The Potency was inconclusive: 11.6 µM [falling, single point].

For `Cc1cc(C)cc(NC(=O)Nc2cccs2)c1`, which Potency is on record?
Its Potency is inconclusive: 8.2 µM [activator, partial curve].

With `CC(=O)CSc1nc(-c2ccccc2)c(-c2ccccc2)o1` as the compound, how does the Potency read?
The Potency was “inactive”.

Which Potency does the source give for `CC(C)(C)[C@H]1COC(=O)[C@@H](Cc2ccc(F)cc2)CC/C=C/C[C@@H](CC(=O)N[C@H](CO)Cc2ccccc2)C(=O)N1` here?
Its Potency is “inactive”.

With `CCOC(=O)CN1C(C(=O)c2ccccc2)=C(OC(=O)c2ccccc2)c2ccccc2S1(=O)=O` as the compound, how does the Potency read?
Its Potency is inconclusive: 29.1 µM [activator, single point].

Which Potency does the source give for `COc1cc2c(cc1OC)C(C1C(=O)CCCC1=O)N(C(=O)CCl)CC2` (centres undefined) here?
The Potency was “inactive”.

With `Cc1ccn2c(=O)nc(SCC(=O)NCc3ccco3)nc2c1` as the compound, how does the Potency read?
The Potency was inconclusive: 14.6 µM [activator, partial curve, poor fit].

With `CCC(C)[C@@H](CN)NCC1(c2ccccc2)CC1` (some centres undefined) as the compound, how does the Potency read?
Its Potency is “inactive”.

Which Potency does the source give for `COc1cc(C(=O)Nc2sc3c(c2C(=O)O)CCC(C)C3)cc(OC)c1OC` (centres undefined) here?
The Potency was active: 5.17 µM.

For `Cc1ccc(S(=O)(=O)N(C)CC(=O)Nc2cccc(C)n2)cc1`, which Potency is on record?
Its Potency is inconclusive: 1.16 µM [falling, partial curve, poor fit].

Which Potency does the source give for `COc1ccc(-c2c(C)sc(NC(=O)c3ccnn3C)c2C#N)cc1` here?
Its Potency is active: 6.51 µM.

With `Cc1ccc(Nc2nc(N)nc(N)c2S(=O)(=O)c2ccccc2)cc1` as the compound, how does the Potency read?
The Potency was “inactive”.

For `COC(=O)c1cc(NC(=O)c2ccc(C)cc2)c(=O)oc1C`, which Potency is on record?
The Potency was inconclusive: 20.6 µM [activator, single point].

Which Potency does the source give for `CCN=C1S/C(=C\c2sccc2C)C(=O)N1CC` here?
The Potency was inconclusive: 7.31 µM [activator, partial curve].
